US8513306B2, “Enhancement of urogenital function” (priority 2005, dated 2013)
At least one structure is not confirmed: it was looked up by name or label, or the drawing left a doubt.

What was measured:
younger subject two = experiment: Trial: small amounts of amantadine with creatine, with or without a PDE5 inhibitor ED drug; assay type: in vivo, human; settings: ED drugs in low doses over the past four years
Method: In a trial, the younger subject two ingested small amounts of amantadine along with about 88 mg of creatine. The small amounts of amantadine were measured by opening a capsule of amantadine and pouring out small amounts. Ten individual administrations used less than one 100 mg capsule of amantadine. Thus, the dose of amantadine was approximately 5 mg to approximately 10 mg.
The subject noted a body weight that varied little from about 78 kg over the past twenty plus years. The subject noted no use of blood pressure or other prescribed medications on a regular basis.

[1] = at some doses; cited from earlier work

For `CN1CC(=O)N2[C@H](c3ccc4c(c3)OCO4)c3[nH]c4ccccc4c3C[C@@H]2C1=O` [CIALIS®, (6R,12aR)-6-(1,3-benzodioxo1-5-yl)-2,3,6,7,12,12a-hexahydro-2-methyl-pyrazino[1,2:1,6]pyrido[3,4-b]indole-1,4-dione], the “Results in conjugal sexual activity” value (younger subject two) is given as “good results” and the Duration of effect [1] is given as 36 h.
